# Cleaved PARP after 72 h of treatment

Source: doi:10.1371/journal.pone.0140310, primary screening data, rounded.

Compounds and concentrations:
XAV939 (10 µM): Oc1nc(-c2ccc(C(F)(F)F)cc2)nc2c1CSCC2
dasatinib (0.02 µM): Cc1nc(Nc2ncc(C(=O)Nc3c(C)cccc3Cl)s2)cc(N2CCN(CCO)CC2)n1
MK-2206 (2 µM): NC1(c2ccc(-c3nc4ccn5c(=O)[nH]nc5c4cc3-c3ccccc3)cc2)CCC1
MK-1775 (0.1 µM): C=CCn1c(=O)c2cnc(Nc3ccc(N4CCN(C)CC4)cc3)nc2n1-c1cccc(C(C)(C)O)n1
crizotinib (1 µM): C[C@@H](Oc1cc(-c2cnn(C3CCNCC3)c2)cnc1N)c1c(Cl)ccc(F)c1Cl
CHIR-265 (0.4 µM): Cn1c(Nc2ccc(C(F)(F)F)cc2)nc2cc(Oc3ccnc(-c4ncc(C(F)(F)F)[nH]4)c3)ccc21
OSU-03012 (5 µM): NCC(=O)Nc1ccc(-n2nc(C(F)(F)F)cc2-c2ccc3c(ccc4ccccc43)c2)cc1

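Human melanoma cells were exposed to a pair of drugs for 72 h in 1,536-well plates and read by automated microscopy after fixing and staining. Each value is the cleaved-PARP-positive fraction of nuclei relative to DMSO-treated wells, in %, so that 100 equals the control and higher values mean more apoptosis. Concentrations were fixed for each drug; these are the higher of two levels. These are primary screening values without error estimates. The marker varies much from line to line, for technical or biological reasons.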 An unselected part of the screen is shown. An entry leaves out what has no value listed here. A dash means that no value is listed here.

| Drugs | A2058 | COLO 800 | SK-MEL-30 | IPC-298 | 501mel |
|---|---|---|---|---|---|
| OSU-03012 + dasatinib | 217 | 150 | 1150 | 135 | - |
| MK-1775 + dasatinib | 164 | 362 | 256 | 156 | - |
| CHIR-265 + XAV939 | 199 | 187 | 101 | 84.0 | 202 |
| OSU-03012 + MK-1775 | 164 | 56.3 | 931 | 439 | - |
| MK-1775 + crizotinib | 218 | 264 | 252 | 71.4 | - |
| CHIR-265 + OSU-03012 | 106 | 165 | 1250 | 117 | - |
| CHIR-265 + MK-1775 | 334 | 81.3 | 189 | 307 | - |
| XAV939 + dasatinib | 272 | 281 | 64.9 | 25.5 | 267 |
| CHIR-265 + MK-2206 | 152 | 199 | 267 | 411 | - |
| dasatinib + MK-2206 | 450 | 28.7 | 119 | 185 | - |
| OSU-03012 + XAV939 | 123 | 61.1 | 394 | 107 | 1280 |
| CHIR-265 + crizotinib | 138 | 282 | 143 | 222 | - |
| MK-1775 + MK-2206 | 212 | 96.0 | 314 | 145 | - |
| XAV939 + MK-1775 | 111 | 44.6 | 148 | 215 | 143 |
| MK-2206 + OSU-03012 | 83.8 | 180 | 1140 | 63.7 | - |
| dasatinib + CHIR-265 | 568 | 194 | 122 | 204 | - |
| crizotinib + OSU-03012 | 101 | 189 | 1780 | 169 | - |
| crizotinib + dasatinib | 382 | 241 | 117 | 133 | - |
| crizotinib + MK-2206 | 189 | 67.2 | 96.7 | 41.8 | - |
| XAV939 + crizotinib | 108 | 135 | 142 | 190 | 262 |

Once more, the final 2:

{"drugs": "crizotinib + MK-2206", "A2058": 189, "COLO 800": 67.2, "SK-MEL-30": 96.7, "IPC-298": 41.8}
{"drugs": "XAV939 + crizotinib", "A2058": 108, "COLO 800": 135, "SK-MEL-30": 142, "IPC-298": 190, "501mel": 262}